{"source": "patent US5157020A", "about": "“Synthetic senescent cell antigen” (Research Corporation Tech., Inc., priority 1990, dated 1992)", "key": {"senescent cell IgG": {"system": "senescent cell IgG", "assay": "IgG binding and inhibition assay (competitive inhibition of senescent cell IgG binding to stored erythrocytes, 125I-Protein A)", "design": "species or system human", "settings": "competitive inhibition assay", "experimental": "IgG binding and inhibition assay. IgG was isolated from senescent RBC from 50 liters of blood and purified with Protein A Sepharose as previously described (2, 4). IgG eluted from senescent cells (SCIgG), rather than serum IgG, was used because normal serum contains antibodies to spectrin, actin, 2.1, etc. (28). Competitive inhibition studies were performed using synthetic peptides to absorb the IgG isolated from senescent erythrocytes. Intact dimeric, senescent cell IgG containing the Fc portion binds to senescent cells in situ and initiates their removal (1-7, 30). Fab fragments were not used because we were simulating the physiological situation. IgG isolated from aged erythrocytes binds specifically to senescent cells. […] Moreover, the specific binding capacity of the autoantibody was eliminated by absorption with purified senescent cell antigen (SCA; 7). […] Storage mimics normal aging in situ immunologically and biochemically (1-7, 30). The number of red cell-bound IgG molecules was quantitated before and after absorption using equilibrium binding kinetics (7, 30, 31). Details of the methods are given elsewhere (27). Percent inhibition was calculated from the following formula: 100[1-(x-b/T-b)] where x=molecules of IgG autoantibody bound per cell; T=total number of IgG antibody molecules bound in the absence of inhibitor; b=background Protein A binding.\nCompetitive inhibition studies were performed using synthetic peptides to absorb the IgG isolated from senescent erythrocytes. IgG binding and inhibition were determined with a protein A binding assay. This biological assay measures the fate of erythrocytes in vitro and in vivo (1, 2, 4).\nIgG binding and inhibition assay. Competitive inhibition studies were performed using synthetic peptides to absorb the IgG isolated from senescent erythrocytes. This is the same IgG that initiates phagocytosis in situ. The Fc portion IgG is required for binding and phagocytosis of cells by macrophages (3, 2, 4, 7, 29). Fab fragments were not used because we were simulating the physiological situation. Intact dimeric, senescent cell IgG containing the Fc portion binds to senescent cells in situ and initiates their removal (3, 32, 2, 4, 6, 17, 7). Only IgG isolated from aged erythrocytes binds specifically to senescent cells. […] Moreover, the specific binding capacity of the autoantibody was eliminated by absorption with purified senescent cell antigen (39). […] Storage mimics normal aging in situ immunologically and biochemically (32, 2, 4, 6, 29, 7). After incubation with absorbed IgG, cells were washed four times with 40-50 volumes of phosphate buffered saline containing 0.2% bovine serum albumin (BSA, fraction V, Sigma, St. Louis, Mo.) and 0.5% glucose. Washed cells were transferred to BSA-coated tubes (5×10^7 cells/50 ul) and incubated for 30 min. at 37° C. with ^125 I-Protein A (Amersham, Arlington Heights, Ill. 30-38 mCi/mg, 10-15 ng/tube). Cells were then washed four times and transferred to new tubes before counting in a gamma scintillation counter (Beckman, Gamma 5,500). The number of red cell-bound IgG molecules was quantitated before and after absorption using equilibrium binding kinetics (7).\nScatchard analysis was performed. Scathard, NY Acad. Sci. 51:660-672 (1949), incorporated herein by reference. Percent inhibition was calculated from the following formula: 100[1-(x-b/T-b)] where x=molecules of IgG autoantibody bound per cell; T=total number of IgG antibody molecules bound in the absence of inhibitor; b=background Protein A binding."}, "[1]": {"system": "erythrocyte anion transport", "assay": "Peptide inhibition of sulfate influx (anion transport) in erythrocytes", "assay_type": "cell-based, human", "settings": "at 5 min, FIG. 7; compared to control without peptide", "experimental": "Anion transport and DIDS inhibition measurements. Sulfate exchange is inhibited by […]. Stilbenedisulfonate derivatives such as DIDS inhibit anion transport by binding to at least two lysine residues in the membrane-spanning region of band 3 (45, 23, 35).\nPeptide inhibition of sulfate \"influx\" experiments were performed essentially according to method of Jennings (46) using 300 mM sucrose, 10 mM Tris-HEPES, pH 7.0, as the \"influx\" buffer (47). Washed cells were incubated in 20-30 volumes of 110 mM K2 SO4 for 10 min at 37° C. to replace intracellular chloride. The cells were centrifuged and the supernatant removed and replaced with 110 mM K2 SO4 for 10 min. This was repeated 3 times. After the last centrifugation, cells were resuspended 300 mM sucrose, 10 mM Tris-HEPES, pH 7.0, and washed once. Cells were suspended to 2×10^8 cells/ml in 2 ml influx buffer at 37° C. Radioactive sulfate (0.01 mM) was added (582 mCi/mM) at suitable time intervals. Samples were taken and added to 18 volumes of ice cold 1.15% KCl (154 mM KCl) buffered to pH 7.4 with MOPS (\"wash buffer\"). The high chloride concentration, temperature, and pH all inhibit sulfate transport. Cells were washed twice to remove external sulfate at 0° C. with wash buffer. […]"}}, "note": "At least one peptide structure holds a part that was inferred or is arguable (an end, a ring closure or a residue). Where a SMILES comes first, the peptide text is derived from it."}
{"smiles": "CC(C)C[C@H](N)C(=O)N[C@@H](Cc1ccccc1)C(=O)NCC(=O)N1CCC[C@H]1C(=O)N1CCC[C@H]1C(=O)NCC(=O)N[C@@H](Cc1ccc(O)cc1)C(=O)N[C@@H](Cc1c[nH]cn1)C(=O)N1CCC[C@H]1C(=O)N[C@@H](CC(=O)O)C(=O)N[C@H](C(=O)N1CCC[C@H]1C(=O)N[C@@H](Cc1ccc(O)cc1)C(=O)N[C@H](C(=O)NCC(=O)N[C@@H](CCCNC(=N)N)C(=O)O)C(C)C)C(C)C", "note": "[COOH-G, LFGPPGYHPDVPYVGR] (H-LFGPPGYHPDVPYVGR-OH)", "values": [{"measurement": "inhibition of senescent cell IgG binding (in words)", "setting": "senescent cell IgG", "result": "reduced its activity"}, {"measurement": "inhibition of anion transport", "setting": "[1]", "result": "27±6", "unit": "%"}]}
{"smiles": "CC(C)C[C@H](N)C(=O)N[C@@H](Cc1ccccc1)C(=O)N[C@@H](CCCNC(=N)N)C(=O)N1CCC[C@H]1C(=O)N1CCC[C@H]1C(=O)N[C@@H](CCCNC(=N)N)C(=O)N[C@@H](Cc1ccc(O)cc1)C(=O)N[C@@H](Cc1c[nH]cn1)C(=O)N1CCC[C@H]1C(=O)N[C@@H](CC(=O)O)C(=O)N[C@H](C(=O)N1CCC[C@H]1C(=O)N[C@@H](Cc1ccc(O)cc1)C(=O)N[C@H](C(=O)N[C@@H](CCCNC(=N)N)C(=O)N[C@@H](CCCNC(=N)N)C(=O)O)C(C)C)C(C)C", "note": "[COOH-R, LFRPPRYHPDVPYVRR] (H-LFRPPRYHPDVPYVRR-OH)", "values": [{"measurement": "inhibition of senescent cell IgG binding (in words)", "setting": "senescent cell IgG", "result": "reduced its activity"}, {"measurement": "inhibition of anion transport", "setting": "[1]", "result": "46±4", "unit": "%"}]}
